Results: US20200277375A1
Results are given in words; binding and its absence hold for the method and conditions named. Some binding calls cover weakened binding; strength is not graded here.

Tests used:
[1] = molecular target: cynomolgus monkey CD47-Fc (cynomolgus monkey); assay: direct titration ELISA, FIG. 3
[2] = molecular target: cynomolgus monkey CD47-Fc (cynomolgus monkey); assay: direct specificity ELISA, IgG 1 µg/ml, FIG. 5F
[3] = molecular target: cynomolgus monkey CD47 on transfected CHO-K1 cells (cynomolgus monkey); assay: flow cytometry, cyno CD47-transfected CHO-K1, FIG. 6A
[4] = molecular target: cynomolgus monkey CD47-Fc (cynomolgus monkey); assay: direct specificity ELISA, IgG 1 µg/ml, FIG. 5G
[5] = molecular target: cynomolgus monkey CD47-Fc (cynomolgus monkey); assay: direct specificity ELISA, IgG 1 µg/ml, FIG. 5E

Measured: binding

B1: D-H3 in human IgG1null format (antibody, V domains shown)
VH: EVQLVQSGAEVKKPGESLKISCKGSGYSFTNYYIFWVRQMPGKGLEWMGDINPVNGDTNYSPSFQGQVTISADKSISTAYLQWSSLKASDTAMYYCARGGYTPDYWGQGTLVTVSS
VL: DIVMTQSPLSLPVTPGEPASISCRSSQSLLHSNGYNYLHWYLQKPGQSPQLLIYKGSNRFSGVPDRFSGSGSGTDFTLKISRVEAEDVGVYYCSQNLHVPRTFGQGTKVEIK
binds: [1] | [2] | [3]

B2: G-B6 in human IgG1null format (antibody, V domains shown)
VH: EVQLVQSGAEVKKPGESLKISCKGSGYSFTNYYIFWVRQMPGKGLEWIGDINPVNGDTNFSPSFQGQVTISADKSISTAYLQWSSLKASDTAMYYCARGGYTMDKWGQGTLVTVSS
VL: DIVMTQSPLSLPVTPGEPASISCRSSQSLVHSNGYTYLHWYLQKPGQSPQLLIYKGSYRASGVPDRFSGSGSGTDFTLKISRVEAEDVGVYYCSQNTQTPRTFGQGTKVEIK
binds: [1] | [4] | [3]

B3: F-E7 in human IgG1null format (antibody, V domains shown)
VH: EVQLVQSGAEVKKPGESLKISCKGSGYSFTNYYIFWVRQMPGKGLEWMGIINPVNGDTNYNPSFQGQVTISADKSISTAYLQWSSLKASDTAMYYCARGGYTMGKWGQGTLVTVSS
VL: DIVMTQSPLSLPVTPGEPASISCRSSQSLVHSNGNTYLDWYLQKPGQSPQLLIYKGSYRFSGVPDRFSGSGSGTDFTLKISRVEAEDVGVYYCSQATHTPRTFGQGTKVEIK
binds: [1] | [5] | [3]
